{"source": "paper PMC4267739", "about": "“Functional Characterization of Corynebacterium glutamicum Mycothiol S-Conjugate Amidase” (PLoS ONE, 2014)", "test_system": "T1, SigH (RpoE, ECF sigma factor) (Corynebacterium glutamicum RES167)", "T1 sequence (looked up)": "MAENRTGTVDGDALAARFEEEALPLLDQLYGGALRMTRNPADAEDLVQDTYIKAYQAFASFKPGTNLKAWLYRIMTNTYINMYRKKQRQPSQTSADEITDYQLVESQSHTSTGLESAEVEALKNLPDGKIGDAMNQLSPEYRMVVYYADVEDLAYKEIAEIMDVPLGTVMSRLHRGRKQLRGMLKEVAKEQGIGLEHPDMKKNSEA", "experiment": "EMSA", "details": "0-3.0 ug His6-SigH, 20 ng DNA, no core RNA polymerase listed; 20 mM Tris-HCl pH 7.4, 4 mM MgCl2, 100 mM NaCl, 1 mM DTT, 10% glycerol, 10 ul, 30 min room temperature; 6% native PAGE with 5% glycerol, 0.5x TBE; recombinant protein; residues 1-206; protein details: His6 (pET28a, N-terminal); label: none (SYBR Green detection); probe letters rebuilt from the primers and the genome", "note": "Where a protein sequence is shown, tags need not be part of it."}
{"sequence": "TCTAGAGCGTAGACCACTCACGTGTTTCATCCTTTCCTTGAAGCTTTATATGCTTCCGCAGGGTTTAGTTGATGTGTATTGCATTCATGATAGTCGTTTCCGCCGTCATACCTATTTACCCCTTGGATGACCTCGGTTAACAGTTTTTCCTGAGGTGACTAAGATGTATAGGTGACCAACTCGATTCGGCTTTGAAGAGGATGCAGACAGACTTCCATCATGAGTACAAATTCCAACTCTCCATCCAACGCATCAGGCGCTTCGAACATTCCAAACACCCAACGTCCGGCTAGCCGATACAATTCGCCTCGCCCGGAAGCTGCTGCAGGCAGGAACATCAGCGGAAAAATCATCGCAGTCATTGGCGTGCTGCTGGTGATCGCC (double strand) [Pmca (mca promoter, 400 bp)]", "values": [{"measurement": "binding result", "result": "binds"}]}
